Data published in publication doi:10.1101/2022.02.18.480778.
Results are given in words; binding and its absence hold for the method and conditions named. In cells and extracts the contact can be indirect. Some results given as binding are weak or reduced against the parent protein; the word gives no strength. For some assays here: Sequences can lack the tags named with a protein.

What was measured:
[1] = target: T1, 6X HIS-tagged ORF57 (ORF57-6XHIS) (KSHV (HHV-8)) (UniProt Q2HR75); assay: co-IP
T1 sequence: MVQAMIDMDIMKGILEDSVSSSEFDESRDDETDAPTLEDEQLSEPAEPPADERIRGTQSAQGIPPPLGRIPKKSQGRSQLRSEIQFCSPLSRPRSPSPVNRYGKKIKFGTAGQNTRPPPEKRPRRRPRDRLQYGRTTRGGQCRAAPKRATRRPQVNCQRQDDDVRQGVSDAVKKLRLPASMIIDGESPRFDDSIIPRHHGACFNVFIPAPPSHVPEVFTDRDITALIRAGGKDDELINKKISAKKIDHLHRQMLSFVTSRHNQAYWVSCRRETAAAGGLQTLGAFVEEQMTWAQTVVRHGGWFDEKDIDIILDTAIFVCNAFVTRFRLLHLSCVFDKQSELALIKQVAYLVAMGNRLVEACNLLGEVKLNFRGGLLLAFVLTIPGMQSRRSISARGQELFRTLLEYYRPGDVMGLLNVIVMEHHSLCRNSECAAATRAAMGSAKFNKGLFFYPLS

[2] = target: Shiftless (SHFL, C19ORF66), endogenous in iSLK.WT cells (human (endogenous in iSLK.WT)) (UniProt Q9NUL5); assay: co-IP

| binding [2] | Substance | binding [1] |
| --- | --- | --- |
|  | FLAG-tagged SHFL (FLAG-SHFL) (from UniProt Q9NUL5 1-291) | binds |
| binds | cytoplasmic poly(A) binding protein 1 (PABPC1) (from UniProt P11940 1-636) |  |
